For experiment [1], the target named is T1, OSMR (Oncostatin M receptor) of MKN28 cells, control group (human (endogenous in MKN28)) (UniProt Q99650).
T1 sequence: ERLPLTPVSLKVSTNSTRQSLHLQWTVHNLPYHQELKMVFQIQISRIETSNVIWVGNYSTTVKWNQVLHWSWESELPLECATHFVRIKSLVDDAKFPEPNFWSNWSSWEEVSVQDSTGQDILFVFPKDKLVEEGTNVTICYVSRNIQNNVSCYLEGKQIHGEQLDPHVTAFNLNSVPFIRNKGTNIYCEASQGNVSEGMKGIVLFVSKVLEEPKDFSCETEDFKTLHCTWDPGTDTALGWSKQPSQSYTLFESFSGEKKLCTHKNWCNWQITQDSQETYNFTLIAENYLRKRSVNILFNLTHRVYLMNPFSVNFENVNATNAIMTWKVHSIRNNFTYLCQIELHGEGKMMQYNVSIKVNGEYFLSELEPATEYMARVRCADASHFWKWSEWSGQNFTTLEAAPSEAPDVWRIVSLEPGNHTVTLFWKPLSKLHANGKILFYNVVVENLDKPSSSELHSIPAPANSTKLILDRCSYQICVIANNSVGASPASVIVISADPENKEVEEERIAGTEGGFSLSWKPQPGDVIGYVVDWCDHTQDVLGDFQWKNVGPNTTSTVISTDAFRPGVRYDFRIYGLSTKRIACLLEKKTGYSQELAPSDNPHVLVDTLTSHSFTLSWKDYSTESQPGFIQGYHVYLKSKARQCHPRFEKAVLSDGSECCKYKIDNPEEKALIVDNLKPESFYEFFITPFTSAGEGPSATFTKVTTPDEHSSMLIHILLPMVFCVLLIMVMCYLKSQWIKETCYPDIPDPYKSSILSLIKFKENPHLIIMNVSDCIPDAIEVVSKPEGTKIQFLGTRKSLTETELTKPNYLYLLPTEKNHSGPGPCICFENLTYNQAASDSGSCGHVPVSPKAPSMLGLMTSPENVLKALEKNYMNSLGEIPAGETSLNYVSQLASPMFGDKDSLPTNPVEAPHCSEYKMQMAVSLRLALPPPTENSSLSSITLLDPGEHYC
As to the kind of experiment: co-IP; MKN28 cells, control group (also siRNA knockdown of P85, and OSMR overexpression in P85-deficient cells); OSMR precipitated, P85 and P110 isoforms blotted.

Amino acid sequences for entries named in this document (tags omitted).
UniProt P23771: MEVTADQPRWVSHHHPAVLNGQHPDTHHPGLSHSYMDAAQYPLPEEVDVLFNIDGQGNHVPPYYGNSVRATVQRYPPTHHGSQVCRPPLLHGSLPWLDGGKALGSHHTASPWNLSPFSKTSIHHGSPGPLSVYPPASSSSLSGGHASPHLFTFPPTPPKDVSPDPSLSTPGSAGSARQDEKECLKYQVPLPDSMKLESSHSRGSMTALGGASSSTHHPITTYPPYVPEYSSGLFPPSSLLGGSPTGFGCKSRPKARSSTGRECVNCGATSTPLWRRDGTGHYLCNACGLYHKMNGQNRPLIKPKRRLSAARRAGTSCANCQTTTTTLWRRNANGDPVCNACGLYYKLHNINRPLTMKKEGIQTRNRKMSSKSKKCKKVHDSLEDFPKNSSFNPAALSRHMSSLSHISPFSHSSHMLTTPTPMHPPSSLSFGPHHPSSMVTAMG
UniProt P27986: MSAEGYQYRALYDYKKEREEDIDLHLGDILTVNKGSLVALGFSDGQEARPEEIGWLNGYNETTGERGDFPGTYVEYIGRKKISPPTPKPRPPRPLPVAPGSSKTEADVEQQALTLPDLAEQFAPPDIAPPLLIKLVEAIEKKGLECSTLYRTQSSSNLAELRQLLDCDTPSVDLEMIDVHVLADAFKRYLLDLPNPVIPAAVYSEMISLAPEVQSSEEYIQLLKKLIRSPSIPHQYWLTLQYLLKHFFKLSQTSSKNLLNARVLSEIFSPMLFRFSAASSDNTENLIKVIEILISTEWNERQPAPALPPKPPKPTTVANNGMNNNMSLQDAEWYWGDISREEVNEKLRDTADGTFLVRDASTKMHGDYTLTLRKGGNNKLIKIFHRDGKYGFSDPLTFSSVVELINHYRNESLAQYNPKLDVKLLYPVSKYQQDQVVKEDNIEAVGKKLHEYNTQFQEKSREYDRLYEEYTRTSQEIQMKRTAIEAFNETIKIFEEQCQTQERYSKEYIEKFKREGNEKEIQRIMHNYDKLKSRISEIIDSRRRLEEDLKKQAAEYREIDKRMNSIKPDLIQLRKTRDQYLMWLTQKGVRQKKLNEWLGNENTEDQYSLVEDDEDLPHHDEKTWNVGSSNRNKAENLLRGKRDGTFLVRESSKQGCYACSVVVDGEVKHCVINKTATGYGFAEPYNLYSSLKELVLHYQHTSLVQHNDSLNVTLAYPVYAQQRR

Experiment [2] addresses T2, FLAG-tagged OSMR (Oncostatin M receptor) (UniProt Q99650).
T2 sequence: T1 sequence
As to the kind of experiment: co-IP; AGS and MKN28 cells transfected with FLAG-tagged OSMR plasmid; RIPA lysate, 500 ug, pre-cleared with Protein A/G magnetic beads; overnight at 4°C with anti-OSMR antibody or isotype control IgG; western blot. (A western blot detects proteins with antibodies after separation by electrophoresis.)

The target in the next experiment is GATA3 (UniProt P23771). Kind of experiment: co-IP; CO-IP of TRIM2 and GATA3 (Fig. 3K); cells and precipitating antibody not stated.

No constants are given. Whether binding was seen depends on the method and setting. Binding seen in cells or lysates may run through a third protein. Some results given as binding are weak or reduced against the parent protein; the word gives no strength. For part of these data: Sequences can lack the tags named with a protein.

As for “PI3K subunit (P85) (from UniProt P27986 1-724)”, the binding entry in experiment [1] and in experiment [2] was “binds” in each case.

B1: TRIM2 (enzyme, UniProt Q9C040 1-744)
chain: MASEGTNIPSPVVRQIDKQFLICSICLERYKNPKVLPCLHTFCERCLQNYIPAHSLTLSCPVCRQTSILPEKGVAALQNNFFITNLMDVLQRTPGSNAEESSILETVTAVAAGKPLSCPNHDGNVMEFYCQSCETAMCRECTEGEHAEHPTVPLKDVVEQHKASLQVQLDAVNKRLPEIDSALQFISEIIHQLTNQKASIVDDIHSTFDELQKTLNVRKSVLLMELEVNYGLKHKVLQSQLDTLLQGQESIKSCSNFTAQALNHGTETEVLLVKKQMSEKLNELADQDFPLHPRENDQLDFIVETEGLKKSIHNLGTILTTNAVASETVATGEGLRQTIIGQPMSVTITTKDKDGELCKTGNAYLTAELSTPDGSVADGEILDNKNGTYEFLYTVQKEGDFTLSLRLYDQHIRGSPFKLKVIRSADVSPTTEGVKRRVKSPGSGHVKQKAVKRPASMYSTGKRKENPIEDDLIFRVGTKGRNKGEFTNLQGVAASTNGKILIADSNNQCVQIFSNDGQFKSRFGIRGRSPGQLQRPTGVAVHPSGDIIIADYDNKWVSIFSSDGKFKTKIGSGKLMGPKGVSVDRNGHIIVVDNKACCVFIFQPNGKIVTRFGSRGNGDRQFAGPHFAAVNSNNEIIITDFHNHSVKVFNQEGEFMLKFGSNGEGNGQFNAPTGVAVDSNGNIIVADWGNSRIQVFDGSGSFLSYINTSADPLYGPQGLALTSDGHVVVADSGNHCFKVYRYLQ
For B1, the binding entry with GATA3 was “binds”.

For the origin of these results see publication PMC12906089.
